{
  "source": "paper PMC7378745",
  "key": {"[1]": {"target": "WT mouse CD28 fused at the C-terminus to CER or monomeric YFP (mouse) (UniProt P31041)", "test": "FRET or BRET; intermolecular FRET by flow cytometry (LSRII): sensitised emission of YFP after excitation of CER at 405 nm; CER and YFP fusions co-expressed by sequential retroviral transduction in CD28-negative DO11.10 T cell hybridomas"}, "[2]": {"target": "C123S mouse CD28 fused at the C-terminus to CER or monomeric YFP (mouse) (UniProt P31041)", "test": "FRET or BRET; intermolecular FRET by flow cytometry (LSRII): sensitised emission of YFP after excitation of CER at 405 nm; CER and YFP fusions co-expressed by sequential retroviral transduction in CD28-negative DO11.10 T cell hybridomas"}, "[3]": {"target": "YT/LL (Y145L/T150L) mouse CD28 fused at the C-terminus to CER or monomeric YFP (mouse) (UniProt P31041)", "test": "FRET or BRET; intermolecular FRET by flow cytometry (LSRII): sensitised emission of YFP after excitation of CER at 405 nm; CER and YFP fusions co-expressed by sequential retroviral transduction in CD28-negative DO11.10 T cell hybridomas"}, "[4]": {"target": "wild type (WT) GpA TM domain in the ToxLuc construct (ToxR-TM-MBP)", "test": "ToxLuc (ToxR transcription reporter of TM dimerisation in E. coli); TM domain inserted between ToxR and MBP; dimerisation activates ToxR and induces luciferase; lysates of E. coli NT326 assayed with ONE-Glo luciferase"}, "[5]": {"target": "WT mouse CD28 TM domain in the ToxLuc construct (ToxR-TM-MBP) (mouse)", "test": "ToxLuc (ToxR transcription reporter of TM dimerisation in E. coli); TM domain inserted between ToxR and MBP; dimerisation activates ToxR and induces luciferase; lysates of E. coli NT326 assayed with ONE-Glo luciferase"}, "[6]": {"target": "WT human CD28 TM domain in the ToxLuc construct (ToxR-TM-MBP) (human)", "test": "ToxLuc (ToxR transcription reporter of TM dimerisation in E. coli); TM domain inserted between ToxR and MBP; dimerisation activates ToxR and induces luciferase; lysates of E. coli NT326 assayed with ONE-Glo luciferase"}},
  "note": "No constants are given. Whether binding was seen depends on the method and setting. For part of these data: Binding seen in cells or lysates may run through a third protein. Some binding calls cover weakened binding; strength is not graded here. For part of these data: Where a sequence is shown, tags or fusion partners need not be part of it.",
  "data": [
    {"molecule": "WT mouse CD28 fused at the C-terminus to CER or monomeric YFP (from UniProt P31041 20-218) (receptor)", "values": [
      {"measurement": "binding", "setting": "[1]", "result": "binds"}
    ]},
    {"molecule": "C123S mouse CD28 fused at the C-terminus to CER or monomeric YFP (from UniProt P31041 20-218) (receptor)", "values": [
      {"measurement": "binding", "setting": "[2]", "result": "binds"}
    ]},
    {"molecule": "YT/LL (Y145L/T150L) mouse CD28 fused at the C-terminus to CER or monomeric YFP (from UniProt P31041 20-218) (receptor)", "values": [
      {"measurement": "binding", "setting": "[3]", "result": "binds"}
    ]},
    {"molecule": "LIIFGVMAGVIGT (domain or fragment)", "note": "[wild type (WT) GpA TM domain in the ToxLuc construct (ToxR-TM-MBP)]", "values": [
      {"measurement": "binding", "setting": "[4]", "result": "binds"}
    ]},
    {"molecule": "FWALVVVAGVLFCYGLLVTVALCVIWT (domain or fragment)", "note": "[WT mouse CD28 TM domain in the ToxLuc construct (ToxR-TM-MBP)]", "values": [
      {"measurement": "binding", "setting": "[5]", "result": "binds"}
    ]},
    {"molecule": "VLVVVGGVLACYSLLVTVAFIIF (domain or fragment)", "note": "[WT human CD28 TM domain in the ToxLuc construct (ToxR-TM-MBP)]", "values": [
      {"measurement": "binding", "setting": "[6]", "result": "binds"}
    ]}
  ]
}
